# Laboratory results reported in PubChem BioAssay AID2718 (Broad Institute, 2010).
# Chains of the proteins cited; added tags and fusions are not shown.
# UniProt O15379, whole entry, looked up: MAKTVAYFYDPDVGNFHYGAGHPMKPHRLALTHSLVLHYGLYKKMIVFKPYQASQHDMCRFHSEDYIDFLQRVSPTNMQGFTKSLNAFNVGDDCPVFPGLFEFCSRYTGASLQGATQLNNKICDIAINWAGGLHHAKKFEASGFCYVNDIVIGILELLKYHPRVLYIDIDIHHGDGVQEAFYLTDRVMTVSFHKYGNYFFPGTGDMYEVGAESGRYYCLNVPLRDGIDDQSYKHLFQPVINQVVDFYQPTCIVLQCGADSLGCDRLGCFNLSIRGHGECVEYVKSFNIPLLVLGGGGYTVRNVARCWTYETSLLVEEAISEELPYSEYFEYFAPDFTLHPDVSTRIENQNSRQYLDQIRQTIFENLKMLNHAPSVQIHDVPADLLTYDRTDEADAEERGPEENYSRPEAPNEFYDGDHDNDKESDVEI
# Out of some 320,000 compounds screened, about 480 (0.15%) were called active. Inconclusive results, whose numbers are uncertain, are shown with a selection of clear calls. No stated cut-off is given here; in the data, active means inhibition above about 26% (passing the limit was not always enough); inconclusive means no clear call, values can overlap the other calls.
# Molecular target: Histone deacetylase 3 (Homo sapiens) (UniProt O15379)
# Assay: HDAC3 deacetylase inhibitors, primary screen, biochemical, fluorescence, cell-free homogeneous (AID 2718)
# Conditions: recombinant HDAC3, fluorogenic peptide/trypsin coupled, at 8.3 µM, hits give high values
row,Structure (SMILES),inhibition
1,O=C(CSc1nc2ccccc2o1)NC(=O)NCc1ccco1,inconclusive: 22.6%
2,CC(=O)Nc1ccc(S(=O)(=O)NCCC(=O)OCC(=O)NCc2ccccc2)cc1,inactive: 1.93%
3,CCOC(=O)c1sc(-c2ccccc2)nc1C,inconclusive: 23.6%
4,COc1ccc(C(=O)NCC(=O)N/N=C/C(C)=C/c2ccco2)cc1OC,inconclusive: 19.2%
5,N#CCSc1ccccc1NC(=O)CN1C(=O)C(=O)N(Cc2ccccc2)C1=O,inconclusive: 14.6%
6,COc1ccc(OC)c(/C=C/C(=O)OCC(=O)Nc2nnc(-c3ccccc3)o2)c1,inactive: -30.7%
7,CCOc1ccc(N(CC(=O)NN=C2CCCC2)S(C)(=O)=O)cc1,inconclusive: 19.3%
8,Cc1ccc2c(c1)C1C=CCC1C(C(=O)O)N2 (stereo not given),inactive: -2.88%
9,CCCn1cccc(C(=O)Nc2ccc(OC)cc2)c1=O,inactive: -1.3%
10,CCc1nc(SCC(=O)Nc2nnc(CC)s2)c2c(C)c(C)sc2n1,inconclusive: 12.5%
11,Cc1ccc(-c2nc(N)s[n+]2-c2ccccc2)cc1,active: 62.4%
12,O=c1[nH]c(C2CCCN(S(=O)(=O)c3ccccc3)C2)nc2c1nnn2Cc1ccccc1Br (stereo not given),inconclusive: 26.4%
13,O=[N+]([O-])c1ccc(NCc2ccc(Cl)cc2)nc1,inconclusive: 15.2%
14,CS(=O)(=O)C1=NSC2=NC(=O)/C(=C\c3ccc(OC(=O)c4ccco4)cc3)C(=N)N21,active: 35.3%
15,NNS(=O)(=O)c1ccc(Sc2ccccn2)c([N+](=O)[O-])c1,inactive: 0.417%
16,O=c1oc2ccccc2c2[nH]ccc12,inconclusive: 27.6%
17,CCN(CC)S(=O)(=O)c1cccc(-c2n[nH]c(=S)n2/N=C/c2ccc(OC)cc2)c1,inconclusive: 19.6%
18,CCc1cc(C(=O)NNC(=S)NCc2ccccc2)cs1,inconclusive: 14.4%
19,CCc1cc(C(c2ccc(OC)c(OC)c2)N2CCOCC2)c(NC(=O)c2ccccc2)s1 (stereo not given),inconclusive: 13%
20,Cc1sc2ncn(CC(=O)N3CCCCC3)c(=O)c2c1C,inconclusive: 12.3%
21,Oc1ccccc1C1=NCCNC(C(F)(F)F)=C1,inconclusive: 18%
22,CC(C)Cn1c(N)c(C(=O)NCC2CCCO2)c2nc3ccccc3nc21 (stereo not given),inactive: -68.7%
23,O=c1c2ccccc2sn1-c1cc(S(=O)(=O)N2CCOCC2)ccc1N1CCCC1,active: 26.9%
24,C=CCC[C@@H](Cc1ccc(F)cc1)C(=O)OC[C@@H](Cc1c[nH]c2ccccc12)NC(=O)[C@H](CC=C)CC(=O)N(CCO)Cc1ccccc1,active: 50.6%
25,CC(=O)c1cccc(NC(=O)c2ccccc2-c2ccccc2C(=O)O)c1,inconclusive: 7.62%
26,COc1ccc(OC)c(CN(CCN2CCOCC2)C(=O)Nc2ccccc2)c1,inconclusive: 18.7%
27,Cc1cc(OC(F)F)ccc1NC(=S)NC1CCCC1,inconclusive: 10.8%
28,CCCn1c(=O)c(C(=O)NCCc2ccc(Cl)cc2)c(O)c2ccccc21,inactive: -0.223%

row,Structure (SMILES),inhibition
1,O=C(Nc1cccc(F)c1)c1cc(S(=O)(=O)NCCC2=CCCCC2)ccc1F,inconclusive: 20.7%
2,COc1cccc(CN(C)C(=O)CNC(=O)c2sc3ccccc3c2Cl)c1OC,inconclusive: 22.2%
3,Cc1ccc(-c2cc(C(F)F)n3ncc(C(=O)Nc4c(C)nn(Cc5ccccc5Cl)c4C)c3n2)cc1,inactive: 3.58%
4,C=CC[C@@H](CC(=O)N(CCO)Cc1ccccc1)C(=O)N[C@@H](COC(=O)[C@@H](CC=C)Cc1ccc(F)cc1)Cc1ccccc1,active: 35.2%
5,CCOc1ccc2oc(C(=O)N3CCCN(C)CC3)c(C)c2c1,inactive: 13.1%
6,O=C(NCC(c1ccco1)N1CCc2ccccc2C1)c1ccccc1 (stereo not given),inconclusive: 21.9%
7,CCOC(=O)/C(=N\Nc1ccccc1Cl)N1CCN(c2ccccc2OC)CC1,inconclusive: 18.4%
8,COc1cccc(CN(C)CC(=O)NCc2ccc(C)cc2)c1,inconclusive: 18.1%
9,CCOC(=O)C1CCCN(S(=O)(=O)c2cccc3cccnc23)C1 (stereo not given),inconclusive: 15.6%
10,Cc1ccc(S(=O)(=O)n2nc(OC(=O)C(C)(C)C)cc2N)cc1,inconclusive: 26.4%
11,COCCN(CCOC)C(=O)c1c[nH]c2ccc(S(=O)(=O)N(C)c3ccc(F)cc3)cc2c1=O,inactive: 6.23%
12,O=C(COC(=O)Cc1c(Cl)cccc1Cl)Nc1ccccc1-c1ccccc1,inconclusive: 21.3%
13,O=C(Cn1nc(Cc2cccnc2)c2ccccc2c1=O)N1CCN(c2ccccn2)CC1,inactive: -8.81%
14,CCCCOC(=O)NS(=O)(=O)c1sc(CC(C)C)cc1-c1ccc(Cn2c(CC)nc3c(C)cc(C)nc32)cc1,inconclusive: 17.7%
15,CCOc1ccccc1NC(=O)C1CCCN(S(=O)(=O)c2ccc(-n3cnnn3)cc2)C1 (stereo not given),inactive: -10.2%
16,CCOC(=O)C1=C(COC(=O)C2(C)CC2(Cl)Cl)NC(=O)NC1c1ccccc1 (stereo not given),inactive: 4.03%
17,O=[N+]([O-])c1ccc(S(=O)(=O)N2CCN(c3ccnc4cc(Cl)ccc34)CC2)cc1,inconclusive: 14.5%
18,COc1ccc(OC)c(S(=O)(=O)Nc2cccc3c(O)cccc23)c1,inactive: 4.74%
19,O=S(=O)(c1cccc(Br)c1)N1CCN(c2ccnc3cc(Cl)ccc23)CC1,inactive: 7.36%
20,Cc1ccc2c(c1)-n1c(nc3cc(Cl)ccc3c1=O)C(CC(C)C)NC2=O (stereo not given),inactive: -1.83%
21,CC(C)n1cnnc1SCC(=O)Nc1cccnc1Cl,inactive: -4.63%
22,O=C(NCc1cccs1)Nc1ccc2c(c1)OCO2,inactive: 6.14%
23,Oc1ccccc1O,inactive: -7.82%
24,CCC(CO)[n+]1c(C)cc(/C=C2\Sc3ccccc3N2Cc2ccccc2)cc1C (stereo not given),active: 26.3%
25,Cc1ccc(OCC(=O)NCCS(=O)(=O)N2CCN(c3ccccc3)CC2)cc1,inconclusive: 26.7%
26,C=CC[C@H](CC(=O)OC(C)(C)C)C(=O)OC[C@@H]1CCCN1C(=O)[C@H](CC=C)CC(=O)N[C@H](CO)Cc1ccccc1,inconclusive: 19%
27,Cc1cccc(N2CCN(S(=O)(=O)c3ccc4c(c3)CCCN4C(=O)C3CCC3)CC2)c1C,inconclusive: 19%

# An excerpt from above in order of length of the SMILES, low to high:
row,Structure (SMILES),inhibition
21,CC(C)n1cnnc1SCC(=O)Nc1cccnc1Cl,inactive: -4.63%
8,COc1cccc(CN(C)CC(=O)NCc2ccc(C)cc2)c1,inconclusive: 18.1%
18,COc1ccc(OC)c(S(=O)(=O)Nc2cccc3c(O)cccc23)c1,inactive: 4.74%
12,O=C(COC(=O)Cc1c(Cl)cccc1Cl)Nc1ccccc1-c1ccccc1,inconclusive: 21.3%
7,CCOC(=O)/C(=N\Nc1ccccc1Cl)N1CCN(c2ccccc2OC)CC1,inconclusive: 18.4%
20,Cc1ccc2c(c1)-n1c(nc3cc(Cl)ccc3c1=O)C(CC(C)C)NC2=O (stereo not given),inactive: -1.83%
24,CCC(CO)[n+]1c(C)cc(/C=C2\Sc3ccccc3N2Cc2ccccc2)cc1C (stereo not given),active: 26.3%
16,CCOC(=O)C1=C(COC(=O)C2(C)CC2(Cl)Cl)NC(=O)NC1c1ccccc1 (stereo not given),inactive: 4.03%
15,CCOc1ccccc1NC(=O)C1CCCN(S(=O)(=O)c2ccc(-n3cnnn3)cc2)C1 (stereo not given),inactive: -10.2%
17,O=[N+]([O-])c1ccc(S(=O)(=O)N2CCN(c3ccnc4cc(Cl)ccc34)CC2)cc1,inconclusive: 14.5%
11,COCCN(CCOC)C(=O)c1c[nH]c2ccc(S(=O)(=O)N(C)c3ccc(F)cc3)cc2c1=O,inactive: 6.23%
14,CCCCOC(=O)NS(=O)(=O)c1sc(CC(C)C)cc1-c1ccc(Cn2c(CC)nc3c(C)cc(C)nc32)cc1,inconclusive: 17.7%
4,C=CC[C@@H](CC(=O)N(CCO)Cc1ccccc1)C(=O)N[C@@H](COC(=O)[C@@H](CC=C)Cc1ccc(F)cc1)Cc1ccccc1,active: 35.2%
